PubChem BioAssay AID1159584 – Peter MacCallum Cancer Centre | 2016
Purpose: 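Knock-downs that harm CDH1-null cells more than parental MCF10A cells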 (primary screen). Cell system: human MCF10A breast epithelial cells, parental and CDH1-null. Reagent: siRNA against human genes. Detection: 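Cell viability by CellTiter-Glo ATP luminescence, each line scaled to the mean of mock wells across plates, then CDH1-null over parental ratio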. Direction: CDH1-null / parental viability ratio: higher = CDH1-null cells survive relatively better than parental.
This is an unselected part of about 18,000 reagents tested. Further read-outs or replicates are left out here. Reagent sequences are not shown. Not given: the amount of reagent, the time to read-out.

TOP1 — CDH1-null / parental viability ratio = 0.96
TOX3 — CDH1-null / parental viability ratio = 0.89
NONO — CDH1-null / parental viability ratio = 1.21
SLC7A6 — CDH1-null / parental viability ratio = 1.15
TXLNA — CDH1-null / parental viability ratio = 0.93
IL3RA — CDH1-null / parental viability ratio = 1.12
BMX — CDH1-null / parental viability ratio = 1.12
MATCAP1 — CDH1-null / parental viability ratio = 1.26
RAI2 — CDH1-null / parental viability ratio = 0.79
RABL3 — CDH1-null / parental viability ratio = 1.05
LINC00174 — CDH1-null / parental viability ratio = 1.31
BTF3L4 — CDH1-null / parental viability ratio = 0.76
SPATA6 — CDH1-null / parental viability ratio = 1.21
RASSF10 — CDH1-null / parental viability ratio = 1.21
CCT8L2 — CDH1-null / parental viability ratio = 1.23
U2AF2 — CDH1-null / parental viability ratio = 1.32
SLC7A6OS — CDH1-null / parental viability ratio = 1.29
KLF12 — CDH1-null / parental viability ratio = 0.82
ERAL1 — CDH1-null / parental viability ratio = 0.92
ACOX3 — CDH1-null / parental viability ratio = 1.07
LACC1 — CDH1-null / parental viability ratio = 1.31
GABRQ — CDH1-null / parental viability ratio = 1.14
NLRP7 — CDH1-null / parental viability ratio = 1.17
IL6ST — CDH1-null / parental viability ratio = 1.09

Single entries from above.
For “CDH1-null / parental viability ratio”, RASSF10 has 1.21
Under “CDH1-null / parental viability ratio”, TXLNA has 0.93
GABRQ, CDH1-null / parental viability ratio: 1.14
